Some results were stated once for a whole list of compounds, not compound by compound.
Experiments:
CDK4 = CDK4 (Homo sapiens, UniProt P11802); assay: IC50 of dual-target inhibitors against CDK4; assay type: biochemical; settings: molecular-level, summary in words
Experimental: The effectiveness of the present application was verified through the following tests: • (1) IC50 values of the dual-target inhibitors (Examples 1-11) against CDK4 were determined.

The chains behind the UniProt entries cited, without tags or fusion partners. Where a name states a change or a piece, a line headed by the entry shows the natural chain unless it says otherwise.
UniProt P11802: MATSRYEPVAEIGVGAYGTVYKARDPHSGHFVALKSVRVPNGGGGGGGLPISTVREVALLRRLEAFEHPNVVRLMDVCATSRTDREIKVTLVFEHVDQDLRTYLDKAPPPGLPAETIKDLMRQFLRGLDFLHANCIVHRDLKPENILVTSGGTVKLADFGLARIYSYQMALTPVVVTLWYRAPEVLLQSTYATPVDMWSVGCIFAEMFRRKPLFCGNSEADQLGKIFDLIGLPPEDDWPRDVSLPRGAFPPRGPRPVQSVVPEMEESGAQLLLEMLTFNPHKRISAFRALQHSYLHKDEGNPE
UniProt P09874, whole entry: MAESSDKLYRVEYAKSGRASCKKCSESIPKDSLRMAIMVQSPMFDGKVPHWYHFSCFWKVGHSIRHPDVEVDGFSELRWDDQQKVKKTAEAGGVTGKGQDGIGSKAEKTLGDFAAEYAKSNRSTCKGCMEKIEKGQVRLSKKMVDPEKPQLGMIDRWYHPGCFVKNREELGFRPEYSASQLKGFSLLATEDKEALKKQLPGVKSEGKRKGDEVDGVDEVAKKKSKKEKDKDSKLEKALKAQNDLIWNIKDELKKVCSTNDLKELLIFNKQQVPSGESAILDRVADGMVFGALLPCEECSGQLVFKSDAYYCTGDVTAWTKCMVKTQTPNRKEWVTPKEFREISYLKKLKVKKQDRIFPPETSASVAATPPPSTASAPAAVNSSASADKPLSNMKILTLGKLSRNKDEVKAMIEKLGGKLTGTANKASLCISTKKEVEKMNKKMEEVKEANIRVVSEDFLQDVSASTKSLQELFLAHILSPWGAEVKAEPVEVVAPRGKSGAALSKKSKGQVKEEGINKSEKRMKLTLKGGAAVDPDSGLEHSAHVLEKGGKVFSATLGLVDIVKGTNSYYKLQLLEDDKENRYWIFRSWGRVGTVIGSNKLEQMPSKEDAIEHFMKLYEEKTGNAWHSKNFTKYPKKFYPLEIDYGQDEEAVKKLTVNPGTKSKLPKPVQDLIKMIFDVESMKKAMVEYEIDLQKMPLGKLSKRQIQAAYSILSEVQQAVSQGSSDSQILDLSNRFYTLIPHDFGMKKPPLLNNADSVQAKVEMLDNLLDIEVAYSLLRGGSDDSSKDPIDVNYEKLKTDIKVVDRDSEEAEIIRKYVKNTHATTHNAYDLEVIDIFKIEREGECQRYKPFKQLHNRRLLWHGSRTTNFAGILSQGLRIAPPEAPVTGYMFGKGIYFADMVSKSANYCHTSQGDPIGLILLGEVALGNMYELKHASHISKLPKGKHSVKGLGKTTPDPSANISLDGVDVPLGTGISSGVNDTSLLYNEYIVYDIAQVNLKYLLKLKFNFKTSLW

PARP1 = PARP1 (Homo sapiens, UniProt P09874); assay: IC50 of dual-target inhibitors against PARP1; assay type: biochemical; settings: molecular-level, summary in words

Row | Compound | inhibitory activity against CDK4 (CDK4) | inhibitory activity against PARP1 (PARP1)
1 | Cc1nc2c(F)cc(-c3nc(Nc4ccc(N5CCN(C(=O)c6cc(Cc7n[nH]c(=O)c8ccccc78)ccc6F)CC5)cc4)ncc3F)cc2n1C(C)C [Compound C5] | strong inhibitory activity | strong inhibitory activity
2 | Cc1nc2c(F)cc(-c3nc(Nc4ccc(CN5CCN(C(=O)c6cc(Cc7n[nH]c(=O)c8ccccc78)ccc6F)CC5)cc4)ncc3F)cc2n1C(C)C [Compound C6] | strong inhibitory activity | strong inhibitory activity
3 | Cc1nc2c(F)cc(-c3nc(Nc4ccc(C(=O)N5CCN(C(=O)c6cc(Cc7n[nH]c(=O)c8ccccc78)ccc6F)CC5)cc4)ncc3F)cc2n1C(C)C [Compound C7] | strong inhibitory activity | strong inhibitory activity
4 | Cc1nc2c(F)cc(-c3nc(Nc4cccc(C(=O)N5CCN(C(=O)c6cc(Cc7n[nH]c(=O)c8ccccc78)ccc6F)CC5)c4)ncc3F)cc2n1C(C)C [Compound C8] | strong inhibitory activity | strong inhibitory activity
5 | Cc1nc2c(F)cc(-c3nc(Nc4ccc(CC(=O)N5CCN(C(=O)c6cc(Cc7n[nH]c(=O)c8ccccc78)ccc6F)CC5)cc4)ncc3F)cc2n1C(C)C [Compound C9] | strong inhibitory activity | strong inhibitory activity
6 | CN(C)C(=O)c1cc2cnc(Nc3ccc(NC(=O)CNC(=O)c4cc(Cc5n[nH]c(=O)c6ccccc56)ccc4F)cc3)nc2n1C1CCCC1 [Compound D14] | strong inhibitory activity | strong inhibitory activity

Reference: US20250381185A1, “CDK4/PARP1 DUAL-TARGET INHIBITOR AND USE THEREOF” (YANBIAN UNIVERSITY, priority 2024, published 2025)
